Assay results reported in patent US20110003343, “CONJUGATES OF BIOMOLECULES TO NANOPARTICLES” (LIFE TECHNOLOGIES CORPORATION, published 2011).
Where a chain is given by its changes, count along the chain named. Tags and fusion partners may be left off the protein sequences shown.

Key:
Experiment in all cases: activity assay
[1] = target: T1, His-tagged F-linker Phi29 DNA polymerase D169A (exo-) (Bacteriophage phi29) (UniProt P03680); details: primer extension; 20 uM dATP, Mg/Mn; purified recombinant protein; protein details: His tag and F-linker, linked to quantum dot; label: fluorescein-dT at X; folded or branched DNA
T1 sequence: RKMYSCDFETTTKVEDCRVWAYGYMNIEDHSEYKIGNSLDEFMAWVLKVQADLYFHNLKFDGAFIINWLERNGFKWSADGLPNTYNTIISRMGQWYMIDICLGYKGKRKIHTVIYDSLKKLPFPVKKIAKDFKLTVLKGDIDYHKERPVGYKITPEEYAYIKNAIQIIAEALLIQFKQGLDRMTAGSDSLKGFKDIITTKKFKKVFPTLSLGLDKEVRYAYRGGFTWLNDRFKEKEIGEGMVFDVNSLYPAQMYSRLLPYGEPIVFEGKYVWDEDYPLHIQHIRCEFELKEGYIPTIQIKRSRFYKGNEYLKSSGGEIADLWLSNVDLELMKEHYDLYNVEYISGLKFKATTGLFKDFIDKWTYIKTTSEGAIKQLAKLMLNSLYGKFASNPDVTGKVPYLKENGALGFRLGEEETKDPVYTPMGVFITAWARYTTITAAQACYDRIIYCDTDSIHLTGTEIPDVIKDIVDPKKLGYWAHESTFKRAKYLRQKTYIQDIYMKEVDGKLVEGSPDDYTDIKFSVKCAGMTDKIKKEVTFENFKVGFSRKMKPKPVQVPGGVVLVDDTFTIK

[2] = target: T2, PKA-tagged Phi29 DNA polymerase (Bacteriophage phi29) (UniProt P03680); details: primer extension; purified recombinant protein; label: fluorescein-dT at X; folded or branched DNA
T2 sequence: T1 sequence with A164D

[3] = target: T3, Phi29 DNA polymerase (HRP-treated quantum dot conjugate) (Bacteriophage phi29) (UniProt P03680); details: primer extension; 10 mM MgCl2, 20 uM dATP; purified recombinant protein; protein details: His tag, HRP-treated quantum dot conjugate; label: fluorescein-dT at …; folded or branched DNA
T3 sequence (looked up, limits assumed): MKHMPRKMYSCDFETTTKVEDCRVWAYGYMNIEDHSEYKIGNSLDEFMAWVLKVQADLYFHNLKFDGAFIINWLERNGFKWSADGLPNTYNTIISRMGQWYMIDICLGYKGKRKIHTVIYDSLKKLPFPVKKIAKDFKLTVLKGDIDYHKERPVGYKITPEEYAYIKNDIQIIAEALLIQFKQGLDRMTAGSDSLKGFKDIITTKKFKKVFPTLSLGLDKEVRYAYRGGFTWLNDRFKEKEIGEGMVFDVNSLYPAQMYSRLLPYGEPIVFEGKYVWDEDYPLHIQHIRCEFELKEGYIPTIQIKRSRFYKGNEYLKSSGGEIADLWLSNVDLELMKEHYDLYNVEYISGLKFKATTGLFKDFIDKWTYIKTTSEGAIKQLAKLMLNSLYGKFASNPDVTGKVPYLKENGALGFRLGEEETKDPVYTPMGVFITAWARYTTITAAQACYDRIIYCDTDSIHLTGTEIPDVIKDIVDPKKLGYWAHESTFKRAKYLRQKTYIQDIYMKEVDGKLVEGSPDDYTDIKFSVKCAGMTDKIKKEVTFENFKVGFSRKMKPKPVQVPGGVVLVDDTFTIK

Measured: activity on this sequence

TTTTTTTGCAGGTGACAGGTTTTTCCTGTCACCTGC [oligo 221]
active: [1] | [2] | [3]
